The values below come from paper PMC9570199.

By UniProt entry, the sequences of proteins in these tests, tags left out. Where a name states a change or a piece, a line headed by the entry shows the natural chain unless it says otherwise.
UniProt P17931: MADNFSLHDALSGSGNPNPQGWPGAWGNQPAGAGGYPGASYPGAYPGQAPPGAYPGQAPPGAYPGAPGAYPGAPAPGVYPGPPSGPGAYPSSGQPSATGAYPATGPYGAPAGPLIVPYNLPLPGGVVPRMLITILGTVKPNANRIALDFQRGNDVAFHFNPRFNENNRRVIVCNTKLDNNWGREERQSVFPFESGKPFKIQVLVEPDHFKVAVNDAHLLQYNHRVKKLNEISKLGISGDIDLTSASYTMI
UniProt O00214: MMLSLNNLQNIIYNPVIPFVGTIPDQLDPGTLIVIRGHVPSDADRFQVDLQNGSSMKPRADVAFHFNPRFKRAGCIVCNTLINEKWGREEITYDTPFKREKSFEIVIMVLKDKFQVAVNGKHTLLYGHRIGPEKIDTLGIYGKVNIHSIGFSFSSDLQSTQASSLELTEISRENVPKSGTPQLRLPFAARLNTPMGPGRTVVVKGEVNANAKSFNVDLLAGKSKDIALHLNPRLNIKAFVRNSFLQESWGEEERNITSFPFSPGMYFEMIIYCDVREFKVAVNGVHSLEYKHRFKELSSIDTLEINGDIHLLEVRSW
UniProt Q10589: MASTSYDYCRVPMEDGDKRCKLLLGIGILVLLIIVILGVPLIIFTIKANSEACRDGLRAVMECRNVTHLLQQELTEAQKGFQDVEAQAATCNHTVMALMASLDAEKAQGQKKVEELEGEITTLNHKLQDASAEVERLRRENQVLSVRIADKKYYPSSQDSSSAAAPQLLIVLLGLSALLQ

Results are given in words; binding and its absence hold for the method and conditions named. For part of these data: A result given as binding can be weak or reduced; the word gives no strength.

What all share (assay): pull-down; GST-tagged galectins immobilised on glutathione-agarose beads, incubated with recombinant BST2; eluted, SDS-PAGE, silver stain and western blot with rabbit anti-BST2 polyclonal antibody; both purified
Background: A western blot detects proteins with antibodies after separation by electrophoresis.

For test [1], the target named is GST-tagged Gal-3 (GST-Gal3) (UniProt P17931).
For another test, the target named is GST-tagged Gal-8 (UniProt O00214).
Test [2] concerns the target GST-tagged long isoform of Gal-9 (GST-Gal9L) (UniProt O00182).

In the case of “Recombinant BST2 protein (Bone Marrow Stromal Cell Antigen 2) (from UniProt Q10589)”, the binding result is “no binding” in test [1], “binds” with GST-tagged Gal-8 and “binds” in test [2].
